Measurements as given in PMC12603192.
No constants are given. Whether binding was seen depends on the method and setting. Binding seen in cells or lysates may run through a third protein. Some entries that bind do so weakly or less than the wild type. For some assays here: Tags and fused reporters may be left off the sequences shown.

Chains of the proteins cited; added tags and fusions are not shown. Residues count along the entry.
UniProt P37173, residues 23-567: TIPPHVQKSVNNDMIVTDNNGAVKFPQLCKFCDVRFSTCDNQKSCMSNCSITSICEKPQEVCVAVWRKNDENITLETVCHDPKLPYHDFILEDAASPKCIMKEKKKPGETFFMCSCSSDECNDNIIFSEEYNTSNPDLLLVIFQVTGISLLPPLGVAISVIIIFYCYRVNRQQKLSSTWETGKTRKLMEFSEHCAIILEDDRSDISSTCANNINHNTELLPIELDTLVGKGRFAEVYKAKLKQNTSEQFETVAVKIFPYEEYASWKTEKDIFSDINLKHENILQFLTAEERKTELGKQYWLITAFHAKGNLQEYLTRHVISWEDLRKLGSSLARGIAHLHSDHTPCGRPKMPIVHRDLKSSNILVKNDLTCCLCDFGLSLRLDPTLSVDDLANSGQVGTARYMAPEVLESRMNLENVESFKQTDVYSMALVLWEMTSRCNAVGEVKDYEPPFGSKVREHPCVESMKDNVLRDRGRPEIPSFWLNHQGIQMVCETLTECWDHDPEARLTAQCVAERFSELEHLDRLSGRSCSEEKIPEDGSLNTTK
UniProt Q15796: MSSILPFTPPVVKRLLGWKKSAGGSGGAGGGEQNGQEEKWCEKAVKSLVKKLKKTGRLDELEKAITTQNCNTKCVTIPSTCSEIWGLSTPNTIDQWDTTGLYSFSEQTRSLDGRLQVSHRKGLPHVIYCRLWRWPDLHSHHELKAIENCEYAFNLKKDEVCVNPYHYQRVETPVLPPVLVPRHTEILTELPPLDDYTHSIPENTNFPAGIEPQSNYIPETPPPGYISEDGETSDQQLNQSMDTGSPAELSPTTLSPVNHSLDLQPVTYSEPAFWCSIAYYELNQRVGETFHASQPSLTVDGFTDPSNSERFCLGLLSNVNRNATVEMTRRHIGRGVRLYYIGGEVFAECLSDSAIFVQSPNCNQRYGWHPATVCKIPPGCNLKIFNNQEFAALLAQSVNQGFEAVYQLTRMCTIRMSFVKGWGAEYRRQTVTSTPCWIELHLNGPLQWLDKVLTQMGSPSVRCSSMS

Tests used:
[1] = target: T1, HA-MARCH2 (human) (UniProt Q9P0N8); test: co-IP; tagged proteins co-expressed (HEK293T for Fig. 2B); lysis in 1% NP-40, 20 mM Tris-HCl pH 7.6, 150 mM NaCl, 2 mM EDTA; magnetic beads overnight at 4 °C, five washes; immunoblot
T1 sequence: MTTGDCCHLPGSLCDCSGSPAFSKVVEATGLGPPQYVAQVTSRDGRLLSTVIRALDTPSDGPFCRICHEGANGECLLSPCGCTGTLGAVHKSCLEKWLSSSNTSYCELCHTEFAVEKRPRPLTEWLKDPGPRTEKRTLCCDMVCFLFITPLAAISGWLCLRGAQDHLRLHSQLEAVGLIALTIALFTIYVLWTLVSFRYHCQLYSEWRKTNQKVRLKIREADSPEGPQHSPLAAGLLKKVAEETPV

[2] = target: T2, endogenous ALK5 (human (endogenous in A549)) (UniProt P36897); test: proximity ligation; PLA of ALK5 with SMAD2/3 in mock- or MARCH2-depleted cells upon TGF-β treatment (Fig. S4C)
T2 sequence: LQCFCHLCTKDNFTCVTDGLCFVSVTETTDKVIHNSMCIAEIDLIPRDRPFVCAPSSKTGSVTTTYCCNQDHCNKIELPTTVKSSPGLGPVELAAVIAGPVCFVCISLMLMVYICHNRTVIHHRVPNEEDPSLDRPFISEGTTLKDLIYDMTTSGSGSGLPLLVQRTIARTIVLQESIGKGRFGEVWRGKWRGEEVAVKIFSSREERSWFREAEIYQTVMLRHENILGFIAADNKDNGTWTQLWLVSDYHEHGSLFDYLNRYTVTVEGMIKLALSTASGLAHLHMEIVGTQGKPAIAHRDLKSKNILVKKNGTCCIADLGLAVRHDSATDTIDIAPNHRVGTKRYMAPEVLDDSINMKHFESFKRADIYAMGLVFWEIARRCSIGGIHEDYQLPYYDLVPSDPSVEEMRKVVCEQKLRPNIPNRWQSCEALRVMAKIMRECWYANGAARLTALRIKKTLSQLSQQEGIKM

Substance	binding [1]	binding [2]
FLAG-TGFBR2 (from UniProt P37173 23-567) (receptor)	binds weakly	
SMAD2 (from UniProt Q15796 1-467)		binds
